The exact form of at least one protein or probe is not confirmed. At least one verdict rests on a figure or table, not on a statement of the authors.
Molecular target: RAD52 wild type (human) (UniProt P43351)
Assay: mass photometry
Conditions: 200 nM DNA, spool-like double ring rare

By UniProt entry, the sequences of proteins in these tests, tags left out. Where a name states a change or a piece, a line headed by the entry shows the natural chain unless it says otherwise.
UniProt P43351: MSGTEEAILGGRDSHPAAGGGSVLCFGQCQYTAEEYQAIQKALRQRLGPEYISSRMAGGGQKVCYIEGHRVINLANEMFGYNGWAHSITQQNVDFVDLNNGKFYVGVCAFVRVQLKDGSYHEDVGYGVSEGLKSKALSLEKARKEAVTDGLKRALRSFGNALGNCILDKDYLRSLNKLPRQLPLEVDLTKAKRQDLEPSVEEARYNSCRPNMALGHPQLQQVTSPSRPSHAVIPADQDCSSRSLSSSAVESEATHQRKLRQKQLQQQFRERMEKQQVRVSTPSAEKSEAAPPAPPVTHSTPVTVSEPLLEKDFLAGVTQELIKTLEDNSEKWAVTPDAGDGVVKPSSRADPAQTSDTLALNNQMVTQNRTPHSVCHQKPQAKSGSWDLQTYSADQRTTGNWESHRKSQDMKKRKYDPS

## TTTTTTTTTTTTTTTTTTTTTTTTTTTTTTTTTTTTTTTTTTTTT [dT45]
  binding result: binds

Source: doi:10.1101/2023.11.14.566657
